Assay results: patent US7425579B2, “Methods for inhibiting activity of polyamine transporters” (Universite Laval, priority 1998, dated 2008)
At least one structure is not confirmed: it was looked up by name or label, or the drawing left a doubt.

Test system: CHO-K1, Jurkat, L1210, MDA-MB-231, ZR-75-1 and MCF-7 cells
Assay: Reversal of DFMO-induced cytostasis by exogenous spermidine in a variety of mammalian cell lines
Type: cell-based
Conditions: generally observed
Description: FIGS. 5A, 5B, 5C, 5D, 5E and 5F are graphs representing that a compound used in a method according to a preferred embodiment antagonizes rescue of DFMO-induced cytostasis by exogenous spermidine. In particular, CHO-K1 (A), Jurkat (B), L1210 (C), MDA-MB-231 (D), ZR-75-1 (E) and MCF-7 cells (F) were grown to near confluency or saturation (for 4 to 11 d according to the cell line considered) with the indicated concentrations of spermidine in medium containing 1 mM aminoguanidine, in the presence of DFMO (●), BNSD-X (□), DFMO plus BNSD-X (▪), or in the absence of either agent (∘), and total DNA content per culture was then determined. The optimal concentration of either DFMO (1 to 5 mM) or BNSD-X (50 or 100 μM) was used for the each cell line as determined in pilot experiments. Data are presented as the mean±SD for triplicate cultures from one out of at least three identical experiments for each cell line;
To determine the ability of polyamine transport antagonists to potentiate DFMO-induced inhibition of cell proliferation in the presence of exogenous polyamines, cells were grown for the indicated period in growth medium supplemented with 1 mM aminoguanidine, and either DFMO (1 to 5 mM), the indicated transport inhibitor (50 or 100 μM), or the combination thereof, as well as increasing concentrations of spermidine (0.1 to 300 μM). […]

Structure (SMILES): NCCCN(CCCN)Cc1ccc(CN(CCCN)CCCN)cc1 [28a, N,N,N′,N′-tetrakis-(3-aminopropyl)-p-diaminoxylene]
- BNSD-X:spermidine ratio for complete prevention of reversion of DFMO-induced cytostasis by spermidine: greater than 50:1
